In article PMC5650320:
No constants are given. Whether binding was seen depends on the method and setting. Binding seen in cells or lysates may run through a third protein. These calls come from enrichment with a bait or labelling near it, and not all partners need be listed.

The chains behind the UniProt entries cited, without tags or fusion partners. Where a name states a change or a piece, a line headed by the entry shows the natural chain unless it says otherwise. Residues count along the entry.
UniProt P39905: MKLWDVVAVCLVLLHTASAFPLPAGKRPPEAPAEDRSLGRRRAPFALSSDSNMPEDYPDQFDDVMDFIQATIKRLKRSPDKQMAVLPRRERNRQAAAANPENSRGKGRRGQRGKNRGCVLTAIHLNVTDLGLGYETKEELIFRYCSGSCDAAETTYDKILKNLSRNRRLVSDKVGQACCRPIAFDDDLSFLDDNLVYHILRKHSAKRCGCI
UniProt Q99J86, residues 87-1432: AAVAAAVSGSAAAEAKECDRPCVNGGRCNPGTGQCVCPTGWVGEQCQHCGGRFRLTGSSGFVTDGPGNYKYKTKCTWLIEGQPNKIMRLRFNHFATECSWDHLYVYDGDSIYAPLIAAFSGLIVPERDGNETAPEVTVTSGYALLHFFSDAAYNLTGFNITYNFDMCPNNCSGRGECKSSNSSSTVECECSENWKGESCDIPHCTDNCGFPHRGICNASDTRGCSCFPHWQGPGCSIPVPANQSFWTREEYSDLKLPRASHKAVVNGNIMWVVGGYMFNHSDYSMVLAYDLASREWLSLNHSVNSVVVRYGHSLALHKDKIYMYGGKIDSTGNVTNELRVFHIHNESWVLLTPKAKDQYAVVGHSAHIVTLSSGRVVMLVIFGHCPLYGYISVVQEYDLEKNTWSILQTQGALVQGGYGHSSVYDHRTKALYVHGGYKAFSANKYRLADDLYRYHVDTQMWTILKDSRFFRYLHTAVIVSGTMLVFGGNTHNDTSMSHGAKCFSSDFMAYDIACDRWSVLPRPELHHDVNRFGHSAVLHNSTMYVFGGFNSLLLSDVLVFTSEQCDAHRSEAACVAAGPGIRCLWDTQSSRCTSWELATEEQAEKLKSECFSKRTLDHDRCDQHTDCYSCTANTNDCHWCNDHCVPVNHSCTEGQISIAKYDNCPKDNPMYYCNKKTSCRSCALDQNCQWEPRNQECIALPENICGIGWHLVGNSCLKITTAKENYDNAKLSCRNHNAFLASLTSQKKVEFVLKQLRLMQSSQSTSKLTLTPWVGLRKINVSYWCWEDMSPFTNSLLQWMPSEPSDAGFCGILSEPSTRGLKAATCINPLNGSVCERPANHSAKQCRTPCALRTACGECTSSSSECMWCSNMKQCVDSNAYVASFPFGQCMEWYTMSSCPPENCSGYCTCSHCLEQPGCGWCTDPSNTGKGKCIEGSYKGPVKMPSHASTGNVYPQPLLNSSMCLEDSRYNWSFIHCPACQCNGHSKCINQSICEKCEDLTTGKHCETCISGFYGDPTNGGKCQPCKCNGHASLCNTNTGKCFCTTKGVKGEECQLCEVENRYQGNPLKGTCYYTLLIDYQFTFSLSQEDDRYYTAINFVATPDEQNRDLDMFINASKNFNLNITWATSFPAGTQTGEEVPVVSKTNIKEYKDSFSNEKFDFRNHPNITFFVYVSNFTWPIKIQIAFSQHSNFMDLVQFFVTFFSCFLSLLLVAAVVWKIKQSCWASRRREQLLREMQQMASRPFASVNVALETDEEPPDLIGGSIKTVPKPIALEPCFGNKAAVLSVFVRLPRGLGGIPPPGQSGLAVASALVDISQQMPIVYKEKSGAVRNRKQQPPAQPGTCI
UniProt P13596, residues 20-858: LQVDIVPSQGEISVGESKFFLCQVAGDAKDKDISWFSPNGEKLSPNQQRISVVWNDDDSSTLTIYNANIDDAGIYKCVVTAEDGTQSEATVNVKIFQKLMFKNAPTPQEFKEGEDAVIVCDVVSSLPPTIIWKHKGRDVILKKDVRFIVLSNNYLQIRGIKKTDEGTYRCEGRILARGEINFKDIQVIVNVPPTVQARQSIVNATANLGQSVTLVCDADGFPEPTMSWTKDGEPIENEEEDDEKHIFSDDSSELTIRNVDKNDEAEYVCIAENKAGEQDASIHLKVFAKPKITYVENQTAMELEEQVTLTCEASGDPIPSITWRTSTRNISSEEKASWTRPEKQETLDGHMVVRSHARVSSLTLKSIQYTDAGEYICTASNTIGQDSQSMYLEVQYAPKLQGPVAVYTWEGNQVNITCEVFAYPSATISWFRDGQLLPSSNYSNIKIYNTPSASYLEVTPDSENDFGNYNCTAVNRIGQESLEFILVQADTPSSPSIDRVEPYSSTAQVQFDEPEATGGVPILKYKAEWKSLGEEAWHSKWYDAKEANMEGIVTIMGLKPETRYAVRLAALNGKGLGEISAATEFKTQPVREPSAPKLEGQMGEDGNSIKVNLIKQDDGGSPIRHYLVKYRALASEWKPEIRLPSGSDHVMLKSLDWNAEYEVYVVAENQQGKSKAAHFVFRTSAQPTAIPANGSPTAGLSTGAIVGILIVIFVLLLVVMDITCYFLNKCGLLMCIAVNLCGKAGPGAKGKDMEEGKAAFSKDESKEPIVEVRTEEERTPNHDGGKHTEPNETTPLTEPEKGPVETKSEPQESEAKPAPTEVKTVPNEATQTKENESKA

B1: neuropilin-2 (NRP2) (receptor, UniProt O35276 23-925)
chain: QQDPPCGGRLNSKDAGYITSPGYPQDYPSHQNCEWVVYAPEPNQKIVLNFNPHFEIEKHDCKYDFIEIRDGDSESADLLGKHCGNIAPPTIISSGSVLYIKFTSDYARQGAGFSLRYEIFKTGSEDCSKNFTSPNGTIESPGFPEKYPHNLDCTFTILAKPRMEIILQFLTFDLEHDPLQVGEGDCKYDWLDIWDGIPHVGPLIGKYCGTKTPSKLRSSTGILSLTFHTDMAVAKDGFSARYYLVHQEPPENFQCNAPLGMESGRIANEQISASSTFSDGRWTPQQSRLHGDDNGWTPNVDSNKEYLQVDLRFLTMLTAIATQGAISRETQKGYYVKSYKLEVSTNGEDWMVYRHGKNHKVFQANNDATELVLNKLHTPLLTRFIRIRPQTWHLGIALRLELFGCRVTDAPCSNMLGMLSGLIADTQISASSTREYLWSPSAARLVSSRSGWFPRNPQAQPGEEWLQVDLGTPKTVKGVIIQGARGGDSITAMEARAFVRKFKVSYSLNGKDWEYIQDPRTQQPKLFEGNMHYDTPDIRRFEPVPAQYVRVYPERWSPAGIGMRLEVLGCDWTDSKPTVETLGPTVKSEETTTPYPMDEDATECGENCSFEDDKDLQLPSGFNCNFDFPEETCGWMYDRAKWLQSTWISSANPNDRTFPDDKNFLKLQSDGGREGQFGRLISPPVHLPRSPVCMEFQYQAMGGHGVALQVVREARQESKLLWVIREDQGSEWKHGRIILPSYDMEYQIVFEGVIGKGRSGEISIDDIRISTDVPLENCMEPISAFAVDIPEIHGGEGYEDEIDDDYEGDWNNSSSTSGAGSPSSGKEKSWLYTLDPILITIIAMSSLGVLLGATCAGLLLYCTCSYSGLSSRSCTTLENYNFELYDGLKHKVKINHQKCCSEA

These molecules were tested against glutathione S-transferase tagged GDNF (GST-GDNF) (UniProt P39905) (assay: affinity purification with mass spectrometry; GST pull-down: membrane proteins of C6 rat glioma cells or primary rat astrocytes in PBS mixed with 15 ug GST-GDNF (or 5 ug GST alone), 1 h at 4°C, GST beads overnight at 4°C, washed thrice with PBS, eluted with 50 mM glutathione in 50 mM Tris pH 8.1; SDS-PAGE, in-gel trypsin digest, LC-MS/MS; hits picked by bioinformatics (GO, PANTHER); only the target purified).

binding, binds:
Attractin (ATRN) (from UniProt Q99J86 87-1432)
neural cell adhesion molecule (NCAM1) (from UniProt P13596 20-858) (receptor)
neuropilin-1 (NRP1) (from UniProt Q9QWJ9 22-922) (receptor)
B1
